In publication doi:10.1101/2022.10.16.511936:

Molecular target: N-terminal part of AtEH1/Pan1 (AA 1-527) in pGBKT7 (Arabidopsis)
Experiment: two-hybrid

B1: cytoplasmic part of CLV1 (AA 671-980) in pGADT7 (domain or fragment, UniProt Q9SYQ8 671-980)
chain: LAWKLTAFQKLDFKSEDVLECLKEENIIGKGGAGIVYRGSMPNNVDVAIKRLVGRGTGRSDHGFTAEIQTLGRIRHRHIVRLLGYVANKDTNLLLYEYMPNGSLGELLHGSKGGHLQWETRHRVAVEAAKGLCYLHHDCSPLILHRDVKSNNILLDSDFEAHVADFGLAKFLVDGAASECMSSIAGSYGYIAPEYAYTLKVDEKSDVYSFGVVLLELIAGKKPVGEFGEGVDIVRWVRNTEEEITQPSDAAIVVAIVDPRLTGYPLTSVIHVFKIAMMCVEEEAAARPTMREVVHMLTNPPKSVANLIAF
For B1, the binding was “binds”.

No constants are given. Whether binding was seen depends on the method and setting. A result given as binding can be weak or reduced; the word gives no strength.
